# Reference: ChEMBL document CHEMBL5727812, “Kappa opioid receptor antagonists and products and methods related thereto” (2020)
# Chains of the proteins cited; added tags and fusions are not shown. Lines headed by an entry give the natural chain unless they say otherwise; changes in a name come on top.
# UniProt P41145: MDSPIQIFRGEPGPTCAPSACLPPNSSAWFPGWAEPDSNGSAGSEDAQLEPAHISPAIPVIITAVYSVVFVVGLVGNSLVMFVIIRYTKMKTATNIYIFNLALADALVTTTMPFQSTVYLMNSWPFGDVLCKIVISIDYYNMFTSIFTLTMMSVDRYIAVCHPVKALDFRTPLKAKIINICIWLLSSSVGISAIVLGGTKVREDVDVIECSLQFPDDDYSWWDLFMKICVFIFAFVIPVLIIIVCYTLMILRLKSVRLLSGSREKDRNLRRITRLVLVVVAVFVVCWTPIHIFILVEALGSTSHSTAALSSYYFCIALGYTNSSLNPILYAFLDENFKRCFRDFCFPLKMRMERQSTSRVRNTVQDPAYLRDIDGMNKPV
# Biological target: Kappa-type opioid receptor (Homo sapiens, UniProt P41145)
structure (smiles),measurement,value
Cc1nc(-c2c(N3CCC(NC4CCOCC4)CC3)nc3c(C#N)cc(OC(F)(F)F)cc3c2C)no1,IC50,> 100 nM
